# According to patent publication US9844563B2, “Compositions, kits, and methods to induce acquired cytoresistance using stress protein inducers” (FRED HUTCHINSON CANCER RESEARCH CENTER, priority 2014, dated 2017):
# For at least one compound, name, drawing or mass did not settle the structure.
# Tested on: HO-1
# Assay: Cardiac HO-1 mRNA and protein after N-Mgb, SnPP or both
# Type: in vivo, mice
# Conditions: 4 h after Rx treatment
# Procedure: Thirty-two mice were divided into 4 equal groups: (1) control mice; (2) mice treated with 1 mg of N-Mgb injection (as a bolus through the tail vein); (3) mice treated with […] of SnPP (via tail vein); and (4) mice treated with combined N-Mgb 1 SnPP. After either 4 hours (n=16) or 18 hours (n=16), the mice were deeply anesthetized with pentobarbital (50 mg/kg), the abdomen was opened through a midline abdominal incision, and the kidneys were removed. To determine potential effects on extrarenal organs, a liver lobe and the heart were also removed. The tissues were iced and then extracted for protein and RNA (RNeasy Plus Mini; Qiagen, Valencia, Calif.) and subjected to enzyme linked immunosorbent assay (ELISA) and reverse transcriptase polymerase chain reaction (RT-PCR) for HO-1, haptoglobin, and IL-10 protein and messenger RNAs (mRNAs). Zager et al. J Am Soc Nephrol 2014;25:998-1012; Zager et al. Am J Physiol 2012;303:F139-48. As an assessment of renal function, control mice and the 18 hour after N-Mgb+SnPP—treated mice had blood urea nitrogen (BUN) and plasma creatinine levels measured. Additionally, transverse 10% formalin fixed kidney sections ([…]) were cut and stained with hematoxylin and eosin (H&E) and periodic acid Schiff (PAS) to further assess potential injury.
smiles,measurement,value
"C=Cc1c2[n-]c(c1C)/C=c1\[n-]/c(c(C)c1C=C)=C\c1[n-]c(c(CCC(=O)O)c1C)C=c1[n-]/c(c(C)c1CCC(=O)O)=C\2.[Sn+4] [SnPP, Sn-protoporphyrin, reference compound]",Cardiac Protein HO-1,1.310.13
